# Source: publication PMC11594562 (International Journal of Molecular Sciences, 2024)
# Assay: general procedure: Fmoc solid-phase peptide synthesis; Rink Amide MBHA resin (0.78 mmol/g); N,N′-diisopropylcarbodiimide/Oxyma Pure; HATU/DIPEA for the hydrazinoacetic acid
# [1] = whole synthesis, Analytical HPLC (C18)
# [2] = conjugation step, Analytical HPLC (C18)
substance,measurement,setting,value
L-K6 peptide amide (IKKILSKIKKLLK; N-terminal hydrazinoacetyl; C-terminal amide; printed: Ile-Lys-Lys-Ile-Leu-Ser-Lys-Ile-Lys-Lys-Leu-Leu-Lys-),purity (crude or final not stated),[1],95%
HELM PEPTIDE1{[Cc1nn(CC(=O)[*:2])c2c1C(=O)[C@@]1(C)C(=C2)Oc2c(-c3csc(N/N=C/c4ccc(Br)cc4)n3)c(O)c(C)c(O)c21].I.K.K.I.L.S.K.I.K.K.L.L.K.[am]}$$$$V2.0 (SMILES CC[C@H](C)[C@H](NC(=O)Cn1nc(C)c2c1C=C1Oc3c(-c4csc(N/N=C/c5ccc(Br)cc5)n4)c(O)c(C)c(O)c3[C@@]1(C)C2=O)C(=O)N[C@@H](CCCCN)C(=O)N[C@@H](CCCCN)C(=O)N[C@H](C(=O)N[C@@H](CC(C)C)C(=O)N[C@@H](CO)C(=O)N[C@@H](CCCCN)C(=O)N[C@H](C(=O)N[C@@H](CCCCN)C(=O)N[C@@H](CCCCN)C(=O)N[C@@H](CC(C)C)C(=O)N[C@@H](CC(C)C)C(=O)N[C@@H](CCCCN)C(N)=O)[C@@H](C)CC)[C@@H](C)CC),conjugation yield,conjugation step,55%
same,final HPLC purity,[2],86%
HELM PEPTIDE1{[NNCC(=O)[*:2]].I.K.K.I.L.S.K.I.K.K.L.L.K.[am]}$$$$V2.0 (SMILES CC[C@H](C)[C@H](NC(=O)CNN)C(=O)N[C@@H](CCCCN)C(=O)N[C@@H](CCCCN)C(=O)N[C@H](C(=O)N[C@@H](CC(C)C)C(=O)N[C@@H](CO)C(=O)N[C@@H](CCCCN)C(=O)N[C@H](C(=O)N[C@@H](CCCCN)C(=O)N[C@@H](CCCCN)C(=O)N[C@@H](CC(C)C)C(=O)N[C@@H](CC(C)C)C(=O)N[C@@H](CCCCN)C(N)=O)[C@@H](C)CC)[C@@H](C)CC),isolated mass,whole synthesis,298 mg
same,isolated yield,whole synthesis,37%
same,crude purity (method not given),[1],93%
same,final HPLC purity,[1],97%
HELM PEPTIDE1{[Cc1nn(CC(=O)[*:2])c2c1C(=O)[C@@]1(C)C(=C2)Oc2c3c(c(C)c(O)c21)O/C(=C\c1ccc(Br)cc1)C3=O].I.K.K.I.L.S.K.I.K.K.L.L.K.[am]}$$$$V2.0 (SMILES CC[C@H](C)[C@H](NC(=O)Cn1nc(C)c2c1C=C1Oc3c4c(c(C)c(O)c3[C@@]1(C)C2=O)O/C(=C\c1ccc(Br)cc1)C4=O)C(=O)N[C@@H](CCCCN)C(=O)N[C@@H](CCCCN)C(=O)N[C@H](C(=O)N[C@@H](CC(C)C)C(=O)N[C@@H](CO)C(=O)N[C@@H](CCCCN)C(=O)N[C@H](C(=O)N[C@@H](CCCCN)C(=O)N[C@@H](CCCCN)C(=O)N[C@@H](CC(C)C)C(=O)N[C@@H](CC(C)C)C(=O)N[C@@H](CCCCN)C(N)=O)[C@@H](C)CC)[C@@H](C)CC),conjugation yield,conjugation step,63%
same,final HPLC purity,[2],94%
